{"source": "paper PMC7819943", "about": "“Rice protein-binding microarrays: a tool to detect cis-acting elements near promoter regions in rice”", "note": "Some of the results follow."}
{"target": "T1, OsSMF1 (Oryza sativa, UniProt Q6ZLB0 1-436)", "T1 sequence": "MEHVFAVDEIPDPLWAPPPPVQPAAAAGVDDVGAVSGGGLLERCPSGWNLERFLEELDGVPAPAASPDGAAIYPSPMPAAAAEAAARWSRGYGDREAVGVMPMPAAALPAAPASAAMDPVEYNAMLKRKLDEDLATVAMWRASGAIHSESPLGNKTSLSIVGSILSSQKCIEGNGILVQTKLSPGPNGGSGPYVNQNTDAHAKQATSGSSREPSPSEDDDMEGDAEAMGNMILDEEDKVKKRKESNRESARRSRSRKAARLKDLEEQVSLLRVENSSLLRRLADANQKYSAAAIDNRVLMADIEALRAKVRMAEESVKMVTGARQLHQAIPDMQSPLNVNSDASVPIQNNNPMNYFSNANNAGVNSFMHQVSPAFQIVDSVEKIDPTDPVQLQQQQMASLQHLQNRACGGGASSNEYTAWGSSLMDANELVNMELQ", "assay": "protein-binding microarray (RPBM); PBS, 2% BSA, 51.3 ng/ul salmon testes DNA, 50 uM zinc acetate, 200 nM TF, 25 C, 1 h; high values mean tight binding", "conditions": "protein: recombinant; tags: N-terminal polyhistidine and DsRed monomer fusion (pET32a); chain copies: 2; label: CyDye5-dUTP incorporated in the synthesized complementary strand; 3' TTTTT single-stranded linker to array surface; dsDNA, one strand shown", "how_it_was_run": "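Per-feature fluorescence intensity (arbitrary units), read on an Axon 4000B scanner, is the binding signal. Transcription factors carrying an N-terminal polyhistidine tag and DsRed fusion were expressed in E. coli BL21-CodonPlus and purified on Ni–NTA. A custom Agilent array, made double-stranded by primer extension with Cy5-dUTP and blocked with 2% BSA, was incubated with 200 nM protein in PBS, 2% BSA, salmon testes DNA and 50 µM zinc acetate at 25 °C for 1 h and then washed.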"}
{"sequence": "AGACGGCAAGTTTCGGCCCATTTATAAAGCCCATATGGGGCGGAGTCACCTAGTGCAG", "binding signal": "3640 fluorescence intensity (a.u.)"}
{"sequence": "CGAGGTCGAACCCAAGATACTCCAGCGAGAAATACTCGGACGGAGTCACCTAGTGCAG", "binding signal": "4270 fluorescence intensity (a.u.)"}
{"sequence": "AGTATGACCTAGGCAAGCAATTAACCAATTATAACTAGCACGGAGTCACCTAGTGCAG", "binding signal": "22400 fluorescence intensity (a.u.)"}
{"sequence": "TTGTGAGGACGAATTCTAGGAGTACTTGTGTGCTGCAGCACGGAGTCACCTAGTGCAG", "binding signal": "11100 fluorescence intensity (a.u.)"}
{"sequence": "CCCCTTGACACTGCCTTTGATGCTCGGCTCTAGCGGTCTTCGGAGTCACCTAGTGCAG", "binding signal": "3200 fluorescence intensity (a.u.)"}
{"sequence": "CATTGTTCAGTGAACCAGTGTATAGTTTGGAGTCAGGTGTCGGAGTCACCTAGTGCAG", "binding signal": "3380 fluorescence intensity (a.u.)"}
{"sequence": "CTTGCACGTCAACGTTGCCATGCCTTGCCGTTGCTTAACGCGGAGTCACCTAGTGCAG", "binding signal": "3330 fluorescence intensity (a.u.)"}
{"sequence": "GGTCCCACATGTCGGTGGGTCCCACGATATATTTTATATGCGGAGTCACCTAGTGCAG", "binding signal": "5460 fluorescence intensity (a.u.)"}
{"sequence": "GAACTCACCGGCGATGAGGGTGACGCGTTGAGGTGCGGCGCGGAGTCACCTAGTGCAG", "binding signal": "3590 fluorescence intensity (a.u.)"}
{"sequence": "CTCCTCGGCCGGCGCGGCGCCCCATGTACGTGGCTCGACCCGGAGTCACCTAGTGCAG", "binding signal": "3970 fluorescence intensity (a.u.)"}
{"sequence": "AGCGGCAGTAGCAAGGGAGCTAGGCCCCGAAGGAAAACCGCGGAGTCACCTAGTGCAG", "binding signal": "46000 fluorescence intensity (a.u.)"}
{"sequence": "ACTTGGTTCTTGCTCATCATCTTTCGCTTGCTCGTCAGCTCGGAGTCACCTAGTGCAG", "binding signal": "3650 fluorescence intensity (a.u.)"}
{"sequence": "ATCGTTATCATATTCACGTTAGGTTGCGTAGAACCTCTTACGGAGTCACCTAGTGCAG", "binding signal": "3150 fluorescence intensity (a.u.)"}
{"sequence": "GCCATTCCACATCAGTCCGTGCCGCTCTCTGCCCATTCTCCGGAGTCACCTAGTGCAG", "binding signal": "4560 fluorescence intensity (a.u.)"}
{"sequence": "TAAATTGTTAAAATTTAGCACACGCTGACTAATCCTCGCTCGGAGTCACCTAGTGCAG", "binding signal": "3920 fluorescence intensity (a.u.)"}
{"sequence": "GCGAACGCGACGCCGTCGTCCGTGGACGCGGCGGTGGCGGCGGAGTCACCTAGTGCAG", "binding signal": "3460 fluorescence intensity (a.u.)"}
{"sequence": "AACCACCCGTCATCCCTCGTCGCTCGTCACCCAGCGGCCTCGGAGTCACCTAGTGCAG", "binding signal": "3460 fluorescence intensity (a.u.)"}
{"sequence": "ACTTTTATTTATCTCTCTCTTCCACATAAGCATTTAGCTTCGGAGTCACCTAGTGCAG", "binding signal": "6960 fluorescence intensity (a.u.)"}
{"sequence": "GGTCTCAAAACGTACCTGACATCATTATACAGCTGACATTCGGAGTCACCTAGTGCAG", "binding signal": "6320 fluorescence intensity (a.u.)"}
{"sequence": "ATTGTGCTTGTATGGTTCTGATTATATGATGCGTATTTTCCGGAGTCACCTAGTGCAG", "binding signal": "3370 fluorescence intensity (a.u.)"}
{"sequence": "TTTATCCCAAAATATAACAATTTCTCCAGCAACATTCTCTCGGAGTCACCTAGTGCAG", "binding signal": "19200 fluorescence intensity (a.u.)"}
{"sequence": "GATTGCCTCTGTCAGTGACGGTTTATGAATCCGTCACCAACGGAGTCACCTAGTGCAG", "binding signal": "4170 fluorescence intensity (a.u.)"}
{"sequence": "TATGGGCCCACACGTCAGAAAGATAAATAGCGTAGCTTCTCGGAGTCACCTAGTGCAG", "binding signal": "5870 fluorescence intensity (a.u.)"}
{"sequence": "ACCGGGTTACCTCTTCCCGACGCTGACATCCATCTCATGGCGGAGTCACCTAGTGCAG", "binding signal": "3210 fluorescence intensity (a.u.)"}
{"sequence": "TTTCGTCACCTCGGTACGTGTTCAATATGTTGCGCATATTCGGAGTCACCTAGTGCAG", "binding signal": "3630 fluorescence intensity (a.u.)"}
{"sequence": "ACCCGCGCGCCGGCCGCGTCATCGACGACATCGTGCGTACCGGAGTCACCTAGTGCAG", "binding signal": "3920 fluorescence intensity (a.u.)"}
{"sequence": "GAAATATACACAGCAGTCACACGATCTGACTCAGATAACTCGGAGTCACCTAGTGCAG", "binding signal": "7240 fluorescence intensity (a.u.)"}
{"sequence": "AATCAACTATAATTAGTTGGCTATATTATTAAACTTGATCCGGAGTCACCTAGTGCAG", "binding signal": "13800 fluorescence intensity (a.u.)"}
{"sequence": "CTAAACTTAGACACCTCAGCGCTAAATAGCACGACGCTGACGGAGTCACCTAGTGCAG", "binding signal": "4740 fluorescence intensity (a.u.)"}
{"sequence": "CTGCATGCATGTGGGGCCCACTTTCAGTGTCAGCCATAGGCGGAGTCACCTAGTGCAG", "binding signal": "4050 fluorescence intensity (a.u.)"}
{"sequence": "GATGAGGCTGCTGACTTGTTCTATGAGATGAGGGTCGAGGCGGAGTCACCTAGTGCAG", "binding signal": "3280 fluorescence intensity (a.u.)"}
{"sequence": "AGCCACGTGCGAAAGGCGTAACCTAATATTTCCCGTGTTCCGGAGTCACCTAGTGCAG", "binding signal": "4370 fluorescence intensity (a.u.)"}
{"sequence": "CCCCTATGAACGCACACACGCACACCCTATCACTATGAGCCGGAGTCACCTAGTGCAG", "binding signal": "3490 fluorescence intensity (a.u.)"}
{"sequence": "GCAGGATGAAAGCAGGGCAGGATGGCACCCACGCGGCGCCCGGAGTCACCTAGTGCAG", "binding signal": "3440 fluorescence intensity (a.u.)"}
{"sequence": "CAGGCCGACATGTGGGCTCCACGTCACGGGCGTCCGGGCCCGGAGTCACCTAGTGCAG", "binding signal": "13100 fluorescence intensity (a.u.)"}
{"sequence": "TACCATATACAAGTGCATAGTCTGATCCATATATTTATGACGGAGTCACCTAGTGCAG", "binding signal": "3290 fluorescence intensity (a.u.)"}
{"sequence": "CTAGCTAGTGTGTGGTTCGGTATCTAAACAATAATTCTCCCGGAGTCACCTAGTGCAG", "binding signal": "37400 fluorescence intensity (a.u.)"}
{"sequence": "CCCCGAGCCGTTAACGTCACCGACACGCGGGCCCCGCGAACGGAGTCACCTAGTGCAG", "binding signal": "4580 fluorescence intensity (a.u.)"}
{"sequence": "TCCTTGCTGCAATATTAAAGGAGGACGCTTCGATCGACTCCGGAGTCACCTAGTGCAG", "binding signal": "10800 fluorescence intensity (a.u.)"}
{"sequence": "CTTTTAAAACCAATCTATACATATAGTAACCATATTTGAACGGAGTCACCTAGTGCAG", "binding signal": "3360 fluorescence intensity (a.u.)"}
{"sequence": "ACCCACCGTCTGCCACGTCAGCTTGCCGCCCACCATTTGGCGGAGTCACCTAGTGCAG", "binding signal": "25900 fluorescence intensity (a.u.)"}
{"sequence": "TCAGAGAGCTGACAGCGTGTTCAGGCCGTTCGATTTTGGTCGGAGTCACCTAGTGCAG", "binding signal": "5030 fluorescence intensity (a.u.)"}
